Laboratory results reported in patent US20240200083.

Molecular target: T1, Cre recombinase (UniProt P06956)
T1 sequence: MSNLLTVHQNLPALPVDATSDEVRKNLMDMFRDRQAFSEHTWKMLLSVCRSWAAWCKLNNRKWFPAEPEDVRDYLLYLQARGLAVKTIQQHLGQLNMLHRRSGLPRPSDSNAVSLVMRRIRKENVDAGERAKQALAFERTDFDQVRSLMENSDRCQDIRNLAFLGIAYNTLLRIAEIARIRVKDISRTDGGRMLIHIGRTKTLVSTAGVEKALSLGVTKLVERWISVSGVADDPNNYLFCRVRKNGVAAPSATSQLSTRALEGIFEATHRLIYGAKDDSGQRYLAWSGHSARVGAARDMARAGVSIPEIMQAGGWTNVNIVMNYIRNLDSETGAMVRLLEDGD
Assay: activity in cells
Conditions: lox71 x lox66 same-direction excision in E. coli, 2% arabinose induction 1 h at 37 C; little residual precursor plasmid; protein in cells; only the site is given

TACCGTTCGTATAATGTATGCTATACGAAGTTAT (double strand) [lox71]
activity on this sequence: active

Tags and fusion partners may be left off the protein sequences shown.
